Experimental data as given in article PMC5668257.
These are yes or no findings as the source states them, for the method shown. In cells and extracts the contact can be indirect.

The chains behind the UniProt entries cited, without tags or fusion partners.
UniProt Q9GKK5: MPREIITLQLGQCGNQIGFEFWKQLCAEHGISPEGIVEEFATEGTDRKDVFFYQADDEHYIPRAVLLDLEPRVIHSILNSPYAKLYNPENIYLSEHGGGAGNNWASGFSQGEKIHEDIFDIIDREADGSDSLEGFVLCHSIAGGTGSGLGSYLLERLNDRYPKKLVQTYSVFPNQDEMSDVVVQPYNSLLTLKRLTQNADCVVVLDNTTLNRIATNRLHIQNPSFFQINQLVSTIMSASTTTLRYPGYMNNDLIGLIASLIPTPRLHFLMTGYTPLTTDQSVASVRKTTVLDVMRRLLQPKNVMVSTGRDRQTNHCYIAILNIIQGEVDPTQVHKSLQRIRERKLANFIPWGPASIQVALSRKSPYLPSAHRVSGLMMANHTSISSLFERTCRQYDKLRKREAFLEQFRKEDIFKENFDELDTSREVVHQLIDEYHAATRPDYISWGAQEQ
UniProt A0A8I3PST2: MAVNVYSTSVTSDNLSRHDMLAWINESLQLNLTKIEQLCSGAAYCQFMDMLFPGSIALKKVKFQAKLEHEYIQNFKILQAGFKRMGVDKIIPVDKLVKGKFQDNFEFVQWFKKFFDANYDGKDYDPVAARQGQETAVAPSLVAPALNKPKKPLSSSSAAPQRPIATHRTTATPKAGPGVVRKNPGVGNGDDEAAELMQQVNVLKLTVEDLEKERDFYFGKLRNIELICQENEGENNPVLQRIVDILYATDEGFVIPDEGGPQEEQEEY

Target: γ-tubulin (dog (endogenous in MDCK)) (UniProt Q9GKK5)
Assay: FRET or BRET; immuno-FRET by acceptor photobleaching at the centrosome area of fixed mitotic MDCK cells; primary antibodies with secondary antibodies labelled with Alexa 555 (donor) and Cy5 or Alexa 633 (acceptor), 1 donor : 2 acceptor

EB1 (from UniProt A0A8I3PST2 1-268)
binding: no binding
